Tested on: MDA-MB-468
Test: Cytotoxicity, MTT assay
Settings: MDA-MB-468 cells

Substance	IC50 relative to IC50 of THPTA
(Cis,cis-1,3,5-cyclohexanetribenzimidazole-1-(2-(2-methoxyethoxy)ethyl)-2-yl)2(Cu(I)PF6)3 [compound 7]	three times
(Cis,cis-1,3,5-cyclohexanetribenzimidazole-1-butyl-2-yl)2(Cu(I)PF6)3 [compound 6]	more than twice

From US20250002465A1, “TRIMERIC COPPER CATALYSTS, INTERMEDIATES FOR MAKING SUCH CATALYSTS AND METHOD FOR PREPARING A CYCLOADDITION COMPOUND” (University of Kentucky Research Foundation, priority 2023, published 2025)
